No constants are given. Whether binding was seen depends on the method and setting. Binding calls can cover weak binding; strength is not graded here. For some of these results: Where a sequence is shown, tags or fusion partners need not be part of it.

By UniProt entry, the sequences of proteins in these tests, tags left out. Where a name states a change or a piece, a line headed by the entry shows the natural chain unless it says otherwise. Residues count along the entry.
UniProt F4I0M4: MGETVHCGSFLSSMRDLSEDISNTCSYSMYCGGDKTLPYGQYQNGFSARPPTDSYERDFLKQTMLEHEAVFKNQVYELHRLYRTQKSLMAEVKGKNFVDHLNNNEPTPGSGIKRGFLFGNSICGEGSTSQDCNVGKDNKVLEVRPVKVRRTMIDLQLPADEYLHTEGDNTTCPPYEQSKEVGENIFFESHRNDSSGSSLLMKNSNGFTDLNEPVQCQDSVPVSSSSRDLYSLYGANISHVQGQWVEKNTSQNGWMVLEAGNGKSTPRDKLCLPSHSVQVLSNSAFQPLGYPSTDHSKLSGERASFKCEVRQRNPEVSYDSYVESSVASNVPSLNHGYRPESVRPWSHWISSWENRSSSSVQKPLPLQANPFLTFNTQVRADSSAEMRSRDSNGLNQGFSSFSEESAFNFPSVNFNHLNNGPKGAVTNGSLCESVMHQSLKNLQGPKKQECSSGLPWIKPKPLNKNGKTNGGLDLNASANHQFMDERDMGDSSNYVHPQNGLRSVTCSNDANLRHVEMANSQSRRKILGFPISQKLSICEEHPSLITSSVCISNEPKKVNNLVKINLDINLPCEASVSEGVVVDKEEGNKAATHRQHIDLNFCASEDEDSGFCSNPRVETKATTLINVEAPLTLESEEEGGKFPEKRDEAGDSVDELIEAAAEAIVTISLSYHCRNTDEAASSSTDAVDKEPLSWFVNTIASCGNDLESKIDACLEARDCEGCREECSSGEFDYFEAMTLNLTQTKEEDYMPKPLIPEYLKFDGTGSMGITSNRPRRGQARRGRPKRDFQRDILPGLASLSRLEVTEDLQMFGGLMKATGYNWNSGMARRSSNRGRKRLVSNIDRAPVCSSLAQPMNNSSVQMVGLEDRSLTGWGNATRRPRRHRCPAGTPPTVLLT
UniProt Q9XIE1, residues 1-191: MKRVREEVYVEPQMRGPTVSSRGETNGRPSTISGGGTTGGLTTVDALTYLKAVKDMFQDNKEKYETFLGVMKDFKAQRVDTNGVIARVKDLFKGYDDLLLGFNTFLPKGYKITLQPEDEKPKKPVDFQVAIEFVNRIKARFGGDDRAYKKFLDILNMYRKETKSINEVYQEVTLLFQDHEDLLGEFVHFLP
UniProt Q9XIK6: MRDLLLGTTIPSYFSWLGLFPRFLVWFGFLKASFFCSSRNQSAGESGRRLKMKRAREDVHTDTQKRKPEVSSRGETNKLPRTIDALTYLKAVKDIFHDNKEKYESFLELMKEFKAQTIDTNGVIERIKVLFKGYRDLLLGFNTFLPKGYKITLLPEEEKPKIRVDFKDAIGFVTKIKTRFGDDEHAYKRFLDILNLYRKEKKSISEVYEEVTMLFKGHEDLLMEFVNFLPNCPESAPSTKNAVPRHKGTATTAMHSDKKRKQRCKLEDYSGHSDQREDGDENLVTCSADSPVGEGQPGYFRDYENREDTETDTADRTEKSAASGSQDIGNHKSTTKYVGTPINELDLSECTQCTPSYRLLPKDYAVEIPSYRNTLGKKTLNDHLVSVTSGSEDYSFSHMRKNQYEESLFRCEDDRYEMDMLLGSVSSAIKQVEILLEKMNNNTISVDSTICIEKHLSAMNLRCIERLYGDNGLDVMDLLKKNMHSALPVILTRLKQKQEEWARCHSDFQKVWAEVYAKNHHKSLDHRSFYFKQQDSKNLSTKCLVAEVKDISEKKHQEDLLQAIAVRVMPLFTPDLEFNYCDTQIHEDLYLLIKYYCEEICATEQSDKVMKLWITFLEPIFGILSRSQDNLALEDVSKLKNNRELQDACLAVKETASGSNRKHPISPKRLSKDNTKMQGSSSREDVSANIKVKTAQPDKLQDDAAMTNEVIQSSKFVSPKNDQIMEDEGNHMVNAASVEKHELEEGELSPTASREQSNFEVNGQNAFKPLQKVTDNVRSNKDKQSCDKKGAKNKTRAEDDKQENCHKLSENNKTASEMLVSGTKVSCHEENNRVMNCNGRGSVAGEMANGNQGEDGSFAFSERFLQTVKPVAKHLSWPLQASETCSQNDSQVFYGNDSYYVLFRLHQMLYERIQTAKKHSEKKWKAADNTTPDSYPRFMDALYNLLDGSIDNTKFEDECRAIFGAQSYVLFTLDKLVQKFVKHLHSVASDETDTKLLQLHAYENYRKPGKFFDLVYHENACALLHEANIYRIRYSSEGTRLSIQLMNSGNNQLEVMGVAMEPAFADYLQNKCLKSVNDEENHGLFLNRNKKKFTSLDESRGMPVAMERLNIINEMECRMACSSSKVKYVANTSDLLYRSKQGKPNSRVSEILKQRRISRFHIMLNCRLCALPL

Assay [1] addresses T1, HDA19 (two-hybrid fusion) (Arabidopsis thaliana) (UniProt O22446).
T1 sequence: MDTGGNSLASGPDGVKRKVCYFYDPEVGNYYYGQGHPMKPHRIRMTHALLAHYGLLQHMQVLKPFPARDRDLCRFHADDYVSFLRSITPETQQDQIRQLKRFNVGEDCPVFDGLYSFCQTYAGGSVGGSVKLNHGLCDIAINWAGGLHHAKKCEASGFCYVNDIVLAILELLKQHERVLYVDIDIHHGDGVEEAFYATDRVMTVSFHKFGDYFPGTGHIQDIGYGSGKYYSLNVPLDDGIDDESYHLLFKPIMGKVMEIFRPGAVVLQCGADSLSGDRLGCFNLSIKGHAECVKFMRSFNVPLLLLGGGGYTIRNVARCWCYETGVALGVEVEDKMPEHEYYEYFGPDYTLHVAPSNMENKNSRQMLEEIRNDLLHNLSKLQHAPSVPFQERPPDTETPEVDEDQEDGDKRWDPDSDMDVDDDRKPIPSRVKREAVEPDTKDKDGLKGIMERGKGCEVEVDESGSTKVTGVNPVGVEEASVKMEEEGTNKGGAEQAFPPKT
Briefly: two-hybrid; pGADT7 fusions in AH109 mated with pGBKT7 fusions in Y187; growth on SD-WLH with 3-AT.

Assay [2] concerns the target GST-HDIP1-4 (631–720 aa) (Arabidopsis thaliana) (UniProt F4I0M4). Briefly: pull-down; pairs of GST-, MBP- or His-tagged proteins incubated with GST or MBP beads 2 h at 4 °C, five washes with lysis buffer, elution, western blot with anti-GST, anti-MBP or anti-His; both purified. In general terms: In western blotting, separated proteins are transferred to a membrane and probed.

For assay [3], the target named is T2, GST-HDA19 (Arabidopsis thaliana) (UniProt O22446).
T2 sequence: T1 sequence
The assay is described as above.

For the substance “HDIP1 (full length, two-hybrid fusion) (Arabidopsis thaliana)”, the binding entry in assay [1] was “binds”.
Turning to “His-SNL5-3 (1–191 aa) (from UniProt Q9XIE1 1-191) (domain or fragment)”, the binding entry in assay [2] is reported as “binds”.
On the same count and under the same terms, with “His-SNL6-3 (1–179 aa) (from UniProt Q9XIK6) (domain or fragment)” the entry was “binds”.
“MBP-HDIP3-C (906–1005 aa) (from UniProt Q9LMG4) (domain or fragment)”: the binding entry in assay [3] is “binds”.

(Values after publication PMC12170880.)
